Data taken from the supplement of paper PMC10849652.
The list shows a part of the results.

Sequences of proteins named here, by UniProt entry; tags and fusion partners are left off. A change or cut given only in a name is not applied to a line headed by its entry.
UniProt Q14254: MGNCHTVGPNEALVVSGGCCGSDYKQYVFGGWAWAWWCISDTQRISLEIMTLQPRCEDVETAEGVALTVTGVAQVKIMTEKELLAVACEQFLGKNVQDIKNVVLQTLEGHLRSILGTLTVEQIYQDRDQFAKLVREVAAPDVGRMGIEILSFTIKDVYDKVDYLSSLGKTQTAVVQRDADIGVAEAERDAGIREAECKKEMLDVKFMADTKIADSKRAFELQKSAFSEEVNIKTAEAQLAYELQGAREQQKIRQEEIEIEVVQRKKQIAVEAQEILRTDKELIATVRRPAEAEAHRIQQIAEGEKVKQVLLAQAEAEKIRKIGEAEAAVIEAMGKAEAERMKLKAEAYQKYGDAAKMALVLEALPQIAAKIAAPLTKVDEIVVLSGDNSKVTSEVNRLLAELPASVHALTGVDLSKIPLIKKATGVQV
UniProt Q9HA64: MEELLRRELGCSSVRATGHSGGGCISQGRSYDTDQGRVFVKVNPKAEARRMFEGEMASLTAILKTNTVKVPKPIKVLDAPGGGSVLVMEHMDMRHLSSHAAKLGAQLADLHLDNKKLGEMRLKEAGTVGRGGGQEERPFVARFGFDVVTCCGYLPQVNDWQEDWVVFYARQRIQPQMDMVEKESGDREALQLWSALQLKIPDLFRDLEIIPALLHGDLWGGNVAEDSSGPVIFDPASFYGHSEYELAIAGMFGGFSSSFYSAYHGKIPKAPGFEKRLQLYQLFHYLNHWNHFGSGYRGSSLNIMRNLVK
UniProt Q14315, whole entry, looked up: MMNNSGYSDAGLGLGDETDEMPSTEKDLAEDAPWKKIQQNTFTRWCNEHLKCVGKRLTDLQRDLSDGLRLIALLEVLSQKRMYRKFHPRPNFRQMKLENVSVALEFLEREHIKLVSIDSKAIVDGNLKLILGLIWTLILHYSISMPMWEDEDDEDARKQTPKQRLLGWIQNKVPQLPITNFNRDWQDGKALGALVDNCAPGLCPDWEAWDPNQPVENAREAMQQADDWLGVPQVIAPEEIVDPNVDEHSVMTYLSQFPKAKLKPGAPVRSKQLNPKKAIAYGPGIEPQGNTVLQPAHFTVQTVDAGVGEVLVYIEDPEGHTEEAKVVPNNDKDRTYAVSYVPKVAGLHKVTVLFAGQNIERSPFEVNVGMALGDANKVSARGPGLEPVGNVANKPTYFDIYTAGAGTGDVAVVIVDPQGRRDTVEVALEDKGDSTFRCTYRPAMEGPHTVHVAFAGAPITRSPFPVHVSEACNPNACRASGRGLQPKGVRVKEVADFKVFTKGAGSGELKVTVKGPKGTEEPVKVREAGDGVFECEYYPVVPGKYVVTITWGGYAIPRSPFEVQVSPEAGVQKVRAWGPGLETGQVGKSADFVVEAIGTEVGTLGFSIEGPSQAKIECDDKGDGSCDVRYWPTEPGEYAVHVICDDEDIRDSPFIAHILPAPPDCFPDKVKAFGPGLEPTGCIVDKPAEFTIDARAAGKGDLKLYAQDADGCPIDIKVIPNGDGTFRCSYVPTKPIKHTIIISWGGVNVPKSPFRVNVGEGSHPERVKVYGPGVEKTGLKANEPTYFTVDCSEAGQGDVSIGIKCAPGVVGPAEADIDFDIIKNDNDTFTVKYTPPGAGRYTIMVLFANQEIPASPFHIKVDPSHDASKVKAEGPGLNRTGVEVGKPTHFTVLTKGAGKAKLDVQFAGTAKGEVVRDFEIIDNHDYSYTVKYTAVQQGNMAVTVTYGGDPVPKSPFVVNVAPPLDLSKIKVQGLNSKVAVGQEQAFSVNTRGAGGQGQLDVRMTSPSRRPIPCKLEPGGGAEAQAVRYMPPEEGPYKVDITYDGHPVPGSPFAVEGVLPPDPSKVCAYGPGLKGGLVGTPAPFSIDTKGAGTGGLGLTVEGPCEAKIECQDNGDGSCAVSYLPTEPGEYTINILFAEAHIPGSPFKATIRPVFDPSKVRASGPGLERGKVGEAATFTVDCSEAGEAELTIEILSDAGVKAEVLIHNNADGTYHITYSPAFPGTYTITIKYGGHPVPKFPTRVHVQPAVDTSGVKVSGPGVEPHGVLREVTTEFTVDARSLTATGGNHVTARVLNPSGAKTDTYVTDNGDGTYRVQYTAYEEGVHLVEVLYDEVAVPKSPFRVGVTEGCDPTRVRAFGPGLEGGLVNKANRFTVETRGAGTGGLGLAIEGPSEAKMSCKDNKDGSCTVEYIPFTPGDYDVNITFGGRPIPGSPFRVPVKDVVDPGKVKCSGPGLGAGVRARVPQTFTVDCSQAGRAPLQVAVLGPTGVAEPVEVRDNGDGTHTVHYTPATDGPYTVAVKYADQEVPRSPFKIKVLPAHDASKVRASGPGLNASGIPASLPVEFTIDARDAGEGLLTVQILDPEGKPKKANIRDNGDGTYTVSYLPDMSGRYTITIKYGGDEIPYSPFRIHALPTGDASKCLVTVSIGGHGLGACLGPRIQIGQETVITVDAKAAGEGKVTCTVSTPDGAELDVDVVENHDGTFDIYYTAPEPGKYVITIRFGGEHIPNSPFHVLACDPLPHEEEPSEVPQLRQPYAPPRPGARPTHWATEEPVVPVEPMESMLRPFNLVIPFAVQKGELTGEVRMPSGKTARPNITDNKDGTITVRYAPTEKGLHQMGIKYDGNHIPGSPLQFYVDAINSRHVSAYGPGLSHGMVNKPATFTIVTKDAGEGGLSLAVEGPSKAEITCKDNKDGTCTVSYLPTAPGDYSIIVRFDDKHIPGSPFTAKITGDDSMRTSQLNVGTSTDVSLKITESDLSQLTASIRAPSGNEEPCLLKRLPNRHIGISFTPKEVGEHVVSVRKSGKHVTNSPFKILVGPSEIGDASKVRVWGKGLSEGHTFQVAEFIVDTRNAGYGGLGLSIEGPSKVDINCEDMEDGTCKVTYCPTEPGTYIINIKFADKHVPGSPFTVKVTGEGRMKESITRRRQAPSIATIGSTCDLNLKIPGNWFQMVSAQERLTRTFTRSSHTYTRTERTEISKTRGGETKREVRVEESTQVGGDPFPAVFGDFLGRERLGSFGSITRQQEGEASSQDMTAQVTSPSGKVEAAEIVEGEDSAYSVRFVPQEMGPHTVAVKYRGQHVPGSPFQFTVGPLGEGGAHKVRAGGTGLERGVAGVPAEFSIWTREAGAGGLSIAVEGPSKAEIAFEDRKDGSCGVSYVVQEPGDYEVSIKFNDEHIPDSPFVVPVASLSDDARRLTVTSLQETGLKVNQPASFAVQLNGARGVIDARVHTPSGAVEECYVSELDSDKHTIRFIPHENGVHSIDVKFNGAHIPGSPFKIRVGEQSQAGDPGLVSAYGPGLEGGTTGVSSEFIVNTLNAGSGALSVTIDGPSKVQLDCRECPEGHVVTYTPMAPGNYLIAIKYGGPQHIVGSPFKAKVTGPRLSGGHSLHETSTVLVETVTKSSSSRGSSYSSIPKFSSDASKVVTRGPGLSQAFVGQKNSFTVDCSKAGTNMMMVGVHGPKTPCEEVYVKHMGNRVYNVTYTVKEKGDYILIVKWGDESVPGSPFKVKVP
UniProt Q6UN15: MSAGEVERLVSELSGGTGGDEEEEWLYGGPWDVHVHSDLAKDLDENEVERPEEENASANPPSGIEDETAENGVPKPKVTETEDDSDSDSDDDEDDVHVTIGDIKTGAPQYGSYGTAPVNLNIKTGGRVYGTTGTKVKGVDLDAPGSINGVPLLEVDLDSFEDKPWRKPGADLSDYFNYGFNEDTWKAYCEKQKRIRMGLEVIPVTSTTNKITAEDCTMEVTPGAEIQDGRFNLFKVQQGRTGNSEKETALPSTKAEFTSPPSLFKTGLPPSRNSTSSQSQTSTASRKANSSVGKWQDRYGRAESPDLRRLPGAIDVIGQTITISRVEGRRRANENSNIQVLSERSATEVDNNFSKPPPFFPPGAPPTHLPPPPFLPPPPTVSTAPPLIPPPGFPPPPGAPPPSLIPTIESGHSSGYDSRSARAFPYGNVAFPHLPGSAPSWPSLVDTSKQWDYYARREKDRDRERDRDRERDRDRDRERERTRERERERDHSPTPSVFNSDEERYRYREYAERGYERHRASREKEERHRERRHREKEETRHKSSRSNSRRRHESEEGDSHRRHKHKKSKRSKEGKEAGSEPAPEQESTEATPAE
UniProt Q6ZV73: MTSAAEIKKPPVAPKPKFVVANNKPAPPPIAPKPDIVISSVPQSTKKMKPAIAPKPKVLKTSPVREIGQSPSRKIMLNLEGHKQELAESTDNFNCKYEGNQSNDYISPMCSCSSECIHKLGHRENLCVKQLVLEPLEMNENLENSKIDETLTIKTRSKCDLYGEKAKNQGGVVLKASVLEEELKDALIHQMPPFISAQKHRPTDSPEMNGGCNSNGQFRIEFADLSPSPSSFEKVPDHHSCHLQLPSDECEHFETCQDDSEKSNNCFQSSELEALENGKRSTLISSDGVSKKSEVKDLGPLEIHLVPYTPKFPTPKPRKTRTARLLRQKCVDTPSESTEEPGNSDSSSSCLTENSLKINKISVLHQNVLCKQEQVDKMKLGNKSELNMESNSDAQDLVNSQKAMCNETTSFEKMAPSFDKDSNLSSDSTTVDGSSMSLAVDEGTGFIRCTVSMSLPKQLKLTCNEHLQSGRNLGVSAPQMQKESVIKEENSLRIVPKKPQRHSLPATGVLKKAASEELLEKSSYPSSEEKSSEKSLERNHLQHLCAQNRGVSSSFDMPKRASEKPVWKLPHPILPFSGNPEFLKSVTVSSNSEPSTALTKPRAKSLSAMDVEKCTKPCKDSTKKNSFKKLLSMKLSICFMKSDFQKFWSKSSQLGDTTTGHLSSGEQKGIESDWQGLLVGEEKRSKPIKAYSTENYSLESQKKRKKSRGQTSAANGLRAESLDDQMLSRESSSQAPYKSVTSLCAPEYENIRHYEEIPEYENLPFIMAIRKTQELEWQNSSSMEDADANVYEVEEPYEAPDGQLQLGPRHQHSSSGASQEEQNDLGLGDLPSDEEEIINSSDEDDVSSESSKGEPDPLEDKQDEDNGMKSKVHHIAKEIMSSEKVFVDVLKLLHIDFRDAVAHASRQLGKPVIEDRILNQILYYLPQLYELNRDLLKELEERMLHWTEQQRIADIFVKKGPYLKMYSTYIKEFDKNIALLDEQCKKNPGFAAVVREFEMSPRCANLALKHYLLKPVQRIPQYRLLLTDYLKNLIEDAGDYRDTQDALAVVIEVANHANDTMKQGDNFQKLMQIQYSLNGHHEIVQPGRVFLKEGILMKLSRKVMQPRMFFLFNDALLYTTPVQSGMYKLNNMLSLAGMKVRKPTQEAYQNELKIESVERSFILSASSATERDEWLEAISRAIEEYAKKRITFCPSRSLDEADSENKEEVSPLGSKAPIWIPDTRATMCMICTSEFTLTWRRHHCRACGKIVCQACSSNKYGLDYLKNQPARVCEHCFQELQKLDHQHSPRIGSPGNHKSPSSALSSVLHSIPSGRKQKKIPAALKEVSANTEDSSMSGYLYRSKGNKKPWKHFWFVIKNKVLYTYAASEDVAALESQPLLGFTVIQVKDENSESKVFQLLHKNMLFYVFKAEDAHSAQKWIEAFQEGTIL
UniProt Q96C11: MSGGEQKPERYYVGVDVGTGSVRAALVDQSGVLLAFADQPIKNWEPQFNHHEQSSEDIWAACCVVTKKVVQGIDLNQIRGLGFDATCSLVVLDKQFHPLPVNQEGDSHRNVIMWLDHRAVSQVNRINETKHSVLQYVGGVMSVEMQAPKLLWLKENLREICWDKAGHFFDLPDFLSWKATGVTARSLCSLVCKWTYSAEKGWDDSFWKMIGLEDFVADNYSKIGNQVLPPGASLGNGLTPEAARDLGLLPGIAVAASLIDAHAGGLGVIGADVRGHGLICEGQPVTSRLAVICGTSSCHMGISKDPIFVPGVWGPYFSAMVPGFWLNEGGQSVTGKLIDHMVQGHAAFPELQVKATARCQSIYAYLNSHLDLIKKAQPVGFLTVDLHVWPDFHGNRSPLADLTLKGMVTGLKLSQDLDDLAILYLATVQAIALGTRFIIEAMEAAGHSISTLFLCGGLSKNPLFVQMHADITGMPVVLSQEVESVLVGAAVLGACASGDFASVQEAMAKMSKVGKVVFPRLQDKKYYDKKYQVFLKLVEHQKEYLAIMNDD
UniProt Q8WVX9: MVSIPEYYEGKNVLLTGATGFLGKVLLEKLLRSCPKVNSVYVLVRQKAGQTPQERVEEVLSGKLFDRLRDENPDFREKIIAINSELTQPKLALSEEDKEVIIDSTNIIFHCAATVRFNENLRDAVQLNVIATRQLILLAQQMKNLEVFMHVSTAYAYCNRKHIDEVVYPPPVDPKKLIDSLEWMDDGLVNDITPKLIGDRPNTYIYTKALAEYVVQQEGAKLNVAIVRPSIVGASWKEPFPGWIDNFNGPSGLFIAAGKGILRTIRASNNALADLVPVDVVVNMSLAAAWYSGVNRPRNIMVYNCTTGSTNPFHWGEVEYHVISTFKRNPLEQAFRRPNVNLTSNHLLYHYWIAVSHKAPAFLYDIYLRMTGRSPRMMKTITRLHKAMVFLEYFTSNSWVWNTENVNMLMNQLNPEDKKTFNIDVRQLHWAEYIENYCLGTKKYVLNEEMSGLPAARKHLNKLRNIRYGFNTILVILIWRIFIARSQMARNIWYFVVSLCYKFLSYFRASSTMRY

Experiments:
Experiment in all cases: log2 fold change, soluble protein after heating vs DMSO (PISA); higher = thermal stabilisation; K562 lysate, 10 uM; active = over 0.2 and 3.5 SD of the protein, either way, in both replicates (recomputed)
[1] = compound: C#Cc1cccc(Nc2ncnc3cc(OCCOC)c(OCCOC)cc23)c1 [erlotinib]
Outline: (§1)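 To prepare the extract, K562 pellets were dounce-homogenised in PBS pH 7.4 with 1 mM MgCl2, giving crude material at 1 mg/mL protein. This was treated with 10 μM compound for 30 min, then heated in aliquots for 3 min over 48°C-58°C before pooling and addition of NP-40 to 0.5% at 4°C. Centrifugation at 21,000xg for 90 min left soluble protein in the supernatant, which TMTpro 16plex LC-MS/MS quantified with equalised channel sums. Results are log-two fold changes in thermal stability compared with solvent controls, from duplicates.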

[2] = compound: C/C(=N\NC(=O)C1=CC(=CC=C1)S(=O)(=O)N2CCOCC2)/C3=C(C=CC(=C3)Cl)O
Outline: as §1

[3] = compound: C1=CC(=CC=C1C2=NC3=C(N2)C=C(C=C3)C(=O)N)OC4=CC=C(C=C4)Cl
Outline: as §1

[4] = compound: C1=CC2=C(C=CC(=C2)/C=C\3/C(=O)NC(=NCC4=CC=CS4)S3)N=C1
Outline: as §1

[5] = compound: C1=CC2=NC=CN=C2C=C1/C=C/3\C(=O)NC(=O)S3
Outline: as §1

[6] = compound: C1=CC=C(C=C1)C2=NC(=C(N2)C3=CC=NC=C3)C4=CC(=C(C=C4)Cl)O
Outline: as §1

[7] = compound: C1=CC=C2C(=C1)C3=NNC4=CC=CC(=C43)C2=O
Outline: as §1

[8] = compound: C1CCN(C1)C(=O)NC2=CC=CC(=C2)NC3=NC=C(C(=N3)NCCC4=CN=CN4)Br
Outline: as §1

[9] = compound: C1CN(CCC1(CC2=CC=C(C=C2)Cl)N)C3=NC=NC4=C3C=CN4
Outline: as §1

[10] = compound: C1COCCN1CCN2C3=CC=CC=C3N=C2NC(=O)C4=CC(=CC=C4)[N+](=O)[O-] [IRAK-1-4 Inhibitor I]
Outline: as §1

[11] = compound: C=CC(=O)N1CCC[C@@H](n2nc(-c3ccc(Oc4ccccc4)cc3)c3c(N)ncnc32)C1 [ibrutinib]
Outline: as §1

[12] = compound: CC(=O)c1cnc2ccc(-c3cc(Cl)c(O)c(Cl)c3)nc2c1N[C@H]1CC[C@H](CN(C)C)CC1
Outline: as §1

[13] = compound: CC(C)(C)Cn1c(N)nc2ccc(-c3[nH]c(C(C)(C)C)nc3-c3ccc(F)cc3)nc21 [ralimetinib]
Outline: as §1

[14] = compound: CC(C)(O)CC(=O)NCCn1ccc2ncnc(Nc3ccc(Oc4cccc(C(F)(F)F)c4)c(Cl)c3)c21
Outline: as §1

[15] = compound: CC(C)C1=C2N=C(C=C(N2N=C1)NCC3=CC=CC=C3)NCCCCCCN
Outline: as §1

[16] = compound: CC1=C(C(CC(=O)N1)C2=CC=C(C=C2)C(F)(F)F)C(=O)NC3=C(C=C4C(=C3)C=NN4)F
Outline: as §1

[17] = compound: CC1=C(C2=C(C=C1)C(=O)C3=CC=CC=C3N2CCCN)C
Outline: as §1

[18] = compound: CC1=C(C=C(C=C1)NC(=O)C2=CC(=CC=C2)C(C)(C)C#N)NC3=CC4=C(C=C3)N=CN(C4=O)C
Outline: as §1

[19] = compound: CC1=C(C=C(C=C1)NC(=O)C2=CC(=CC=C2)N(C)C)NC(=O)C3=CC=C(C=C3)O
Outline: as §1

[20] = compound: CC1=CC=C(C=C1)SC2=C3C=C(SC3=CN=C2)C(=O)N
Outline: as §1

Measured: log2 fold change

FLOT2 (UniProt Q14254)
inactive: [1] 0.008 | [2] 0.048 | [3] 0.039 | [4] -0.021 | [5] -0.015 | [6] -0.014 | [7] 0.029 | [8] -0.008 | [9] 0.002 | [10] 0.027 | [11] 0.006 | [12] -0.016 | [13] -0.003 | [14] -0.023 | [15] -0.009 | [16] -0.045 | [17] -0.014 | [18] -0.003 | [19] 0.005 | [20] -0.015

FKBPL (UniProt Q9UIM3)
inactive: [1] 0.009 | [2] 0.001 | [3] 0.051 | [4] -0.02 | [5] 0.013 | [6] 0.039 | [7] 0.01 | [8] -0.016 | [9] -0.006 | [10] 0.012 | [11] 0.04 | [12] 0.011 | [13] -0.005 | [14] 0.032 | [15] 0.013 | [16] 0.027 | [17] -0.083 | [18] -0.003 | [19] -0.033 | [20] -0.025

FN3KRP (UniProt Q9HA64)
inactive: [1] -0.013 | [2] 0.084 | [3] -0.014 | [4] -0.003 | [5] -0.013 | [6] 0.009 | [7] 0.003 | [8] 0.025 | [9] 0.031 | [10] -0.002 | [11] 0.012 | [12] -0.009 | [13] -0.005 | [14] 0.006 | [15] -0.015 | [16] 0.018 | [17] -0.006 | [18] 0.022 | [19] -0.013 | [20] 0.1

FLNC (UniProt Q14315)
inactive: [1] -0.009 | [2] -0.004 | [3] 0.019 | [4] 0.001 | [5] 0 | [6] 0 | [7] 0.019 | [8] 0.011 | [9] 0.016 | [10] 0.005 | [11] 0.002 | [12] -0.01 | [13] 0.003 | [14] -0.013 | [15] -0.01 | [16] -0.003 | [17] 0 | [18] 0.01 | [19] -0.015 | [20] -0.012

FIP1L1 (UniProt Q6UN15)
inactive: [1] 0.014 | [2] -0.1 | [3] 0.018 | [4] -0.016 | [5] -0.013 | [6] 0.001 | [7] 0.006 | [8] -0.049 | [9] 0.015 | [10] 0.009 | [11] 0.076 | [12] -0.006 | [13] -0.016 | [14] -0.039 | [15] 0.013 | [16] 0.018 | [17] 0.024 | [18] -0.19 | [19] 0.004 | [20] 0.021

FGD6 (UniProt Q6ZV73)
inactive: [1] 0.011 | [2] -0.298 | [3] 0.042 | [4] 0.537 | [5] 0.404 | [6] 0.361 | [7] -0.353 | [8] 0.02 | [9] 0.042 | [10] -0.019 | [11] -0.472 | [12] -0.492 | [13] -0.637 | [14] 0.095 | [15] -0.023 | [16] 0.251 | [17] -0.029 | [18] 0.446 | [19] -0.008 | [20] -0.165

FGGY isoform 3 (UniProt Q96C11)
inactive: [1] -0.049 | [2] -0.014 | [3] 0.045 | [4] 0.036 | [5] -0.219 | [6] -0.01 | [7] -0.094 | [8] -0.088 | [9] -0.086 | [10] 0.002 | [11] 0.279 | [12] -0.042 | [13] -0.029 | [14] -0.006 | [15] -0.046 | [16] -0.022 | [17] 0.033 | [18] 0.122 | [19] -0.073 | [20] 0.025

FAR1 (UniProt Q8WVX9)
inactive: [1] 0.044 | [2] 0.063 | [3] -0.226 | [4] -0.033 | [5] 0.107 | [6] 0.013 | [7] -0.023 | [8] -0.102 | [9] 0.028 | [10] -0.005 | [11] 0.035 | [12] -0.127 | [13] 0.017 | [14] -0.119 | [15] 0.117 | [16] 0.011 | [17] 0.031 | [18] -0.008 | [19] 0.006 | [20] -0.067
